{"sequences": {"note": "Amino acid sequences for entries named in this document (tags omitted).", "UniProt Q7Z6Z7": "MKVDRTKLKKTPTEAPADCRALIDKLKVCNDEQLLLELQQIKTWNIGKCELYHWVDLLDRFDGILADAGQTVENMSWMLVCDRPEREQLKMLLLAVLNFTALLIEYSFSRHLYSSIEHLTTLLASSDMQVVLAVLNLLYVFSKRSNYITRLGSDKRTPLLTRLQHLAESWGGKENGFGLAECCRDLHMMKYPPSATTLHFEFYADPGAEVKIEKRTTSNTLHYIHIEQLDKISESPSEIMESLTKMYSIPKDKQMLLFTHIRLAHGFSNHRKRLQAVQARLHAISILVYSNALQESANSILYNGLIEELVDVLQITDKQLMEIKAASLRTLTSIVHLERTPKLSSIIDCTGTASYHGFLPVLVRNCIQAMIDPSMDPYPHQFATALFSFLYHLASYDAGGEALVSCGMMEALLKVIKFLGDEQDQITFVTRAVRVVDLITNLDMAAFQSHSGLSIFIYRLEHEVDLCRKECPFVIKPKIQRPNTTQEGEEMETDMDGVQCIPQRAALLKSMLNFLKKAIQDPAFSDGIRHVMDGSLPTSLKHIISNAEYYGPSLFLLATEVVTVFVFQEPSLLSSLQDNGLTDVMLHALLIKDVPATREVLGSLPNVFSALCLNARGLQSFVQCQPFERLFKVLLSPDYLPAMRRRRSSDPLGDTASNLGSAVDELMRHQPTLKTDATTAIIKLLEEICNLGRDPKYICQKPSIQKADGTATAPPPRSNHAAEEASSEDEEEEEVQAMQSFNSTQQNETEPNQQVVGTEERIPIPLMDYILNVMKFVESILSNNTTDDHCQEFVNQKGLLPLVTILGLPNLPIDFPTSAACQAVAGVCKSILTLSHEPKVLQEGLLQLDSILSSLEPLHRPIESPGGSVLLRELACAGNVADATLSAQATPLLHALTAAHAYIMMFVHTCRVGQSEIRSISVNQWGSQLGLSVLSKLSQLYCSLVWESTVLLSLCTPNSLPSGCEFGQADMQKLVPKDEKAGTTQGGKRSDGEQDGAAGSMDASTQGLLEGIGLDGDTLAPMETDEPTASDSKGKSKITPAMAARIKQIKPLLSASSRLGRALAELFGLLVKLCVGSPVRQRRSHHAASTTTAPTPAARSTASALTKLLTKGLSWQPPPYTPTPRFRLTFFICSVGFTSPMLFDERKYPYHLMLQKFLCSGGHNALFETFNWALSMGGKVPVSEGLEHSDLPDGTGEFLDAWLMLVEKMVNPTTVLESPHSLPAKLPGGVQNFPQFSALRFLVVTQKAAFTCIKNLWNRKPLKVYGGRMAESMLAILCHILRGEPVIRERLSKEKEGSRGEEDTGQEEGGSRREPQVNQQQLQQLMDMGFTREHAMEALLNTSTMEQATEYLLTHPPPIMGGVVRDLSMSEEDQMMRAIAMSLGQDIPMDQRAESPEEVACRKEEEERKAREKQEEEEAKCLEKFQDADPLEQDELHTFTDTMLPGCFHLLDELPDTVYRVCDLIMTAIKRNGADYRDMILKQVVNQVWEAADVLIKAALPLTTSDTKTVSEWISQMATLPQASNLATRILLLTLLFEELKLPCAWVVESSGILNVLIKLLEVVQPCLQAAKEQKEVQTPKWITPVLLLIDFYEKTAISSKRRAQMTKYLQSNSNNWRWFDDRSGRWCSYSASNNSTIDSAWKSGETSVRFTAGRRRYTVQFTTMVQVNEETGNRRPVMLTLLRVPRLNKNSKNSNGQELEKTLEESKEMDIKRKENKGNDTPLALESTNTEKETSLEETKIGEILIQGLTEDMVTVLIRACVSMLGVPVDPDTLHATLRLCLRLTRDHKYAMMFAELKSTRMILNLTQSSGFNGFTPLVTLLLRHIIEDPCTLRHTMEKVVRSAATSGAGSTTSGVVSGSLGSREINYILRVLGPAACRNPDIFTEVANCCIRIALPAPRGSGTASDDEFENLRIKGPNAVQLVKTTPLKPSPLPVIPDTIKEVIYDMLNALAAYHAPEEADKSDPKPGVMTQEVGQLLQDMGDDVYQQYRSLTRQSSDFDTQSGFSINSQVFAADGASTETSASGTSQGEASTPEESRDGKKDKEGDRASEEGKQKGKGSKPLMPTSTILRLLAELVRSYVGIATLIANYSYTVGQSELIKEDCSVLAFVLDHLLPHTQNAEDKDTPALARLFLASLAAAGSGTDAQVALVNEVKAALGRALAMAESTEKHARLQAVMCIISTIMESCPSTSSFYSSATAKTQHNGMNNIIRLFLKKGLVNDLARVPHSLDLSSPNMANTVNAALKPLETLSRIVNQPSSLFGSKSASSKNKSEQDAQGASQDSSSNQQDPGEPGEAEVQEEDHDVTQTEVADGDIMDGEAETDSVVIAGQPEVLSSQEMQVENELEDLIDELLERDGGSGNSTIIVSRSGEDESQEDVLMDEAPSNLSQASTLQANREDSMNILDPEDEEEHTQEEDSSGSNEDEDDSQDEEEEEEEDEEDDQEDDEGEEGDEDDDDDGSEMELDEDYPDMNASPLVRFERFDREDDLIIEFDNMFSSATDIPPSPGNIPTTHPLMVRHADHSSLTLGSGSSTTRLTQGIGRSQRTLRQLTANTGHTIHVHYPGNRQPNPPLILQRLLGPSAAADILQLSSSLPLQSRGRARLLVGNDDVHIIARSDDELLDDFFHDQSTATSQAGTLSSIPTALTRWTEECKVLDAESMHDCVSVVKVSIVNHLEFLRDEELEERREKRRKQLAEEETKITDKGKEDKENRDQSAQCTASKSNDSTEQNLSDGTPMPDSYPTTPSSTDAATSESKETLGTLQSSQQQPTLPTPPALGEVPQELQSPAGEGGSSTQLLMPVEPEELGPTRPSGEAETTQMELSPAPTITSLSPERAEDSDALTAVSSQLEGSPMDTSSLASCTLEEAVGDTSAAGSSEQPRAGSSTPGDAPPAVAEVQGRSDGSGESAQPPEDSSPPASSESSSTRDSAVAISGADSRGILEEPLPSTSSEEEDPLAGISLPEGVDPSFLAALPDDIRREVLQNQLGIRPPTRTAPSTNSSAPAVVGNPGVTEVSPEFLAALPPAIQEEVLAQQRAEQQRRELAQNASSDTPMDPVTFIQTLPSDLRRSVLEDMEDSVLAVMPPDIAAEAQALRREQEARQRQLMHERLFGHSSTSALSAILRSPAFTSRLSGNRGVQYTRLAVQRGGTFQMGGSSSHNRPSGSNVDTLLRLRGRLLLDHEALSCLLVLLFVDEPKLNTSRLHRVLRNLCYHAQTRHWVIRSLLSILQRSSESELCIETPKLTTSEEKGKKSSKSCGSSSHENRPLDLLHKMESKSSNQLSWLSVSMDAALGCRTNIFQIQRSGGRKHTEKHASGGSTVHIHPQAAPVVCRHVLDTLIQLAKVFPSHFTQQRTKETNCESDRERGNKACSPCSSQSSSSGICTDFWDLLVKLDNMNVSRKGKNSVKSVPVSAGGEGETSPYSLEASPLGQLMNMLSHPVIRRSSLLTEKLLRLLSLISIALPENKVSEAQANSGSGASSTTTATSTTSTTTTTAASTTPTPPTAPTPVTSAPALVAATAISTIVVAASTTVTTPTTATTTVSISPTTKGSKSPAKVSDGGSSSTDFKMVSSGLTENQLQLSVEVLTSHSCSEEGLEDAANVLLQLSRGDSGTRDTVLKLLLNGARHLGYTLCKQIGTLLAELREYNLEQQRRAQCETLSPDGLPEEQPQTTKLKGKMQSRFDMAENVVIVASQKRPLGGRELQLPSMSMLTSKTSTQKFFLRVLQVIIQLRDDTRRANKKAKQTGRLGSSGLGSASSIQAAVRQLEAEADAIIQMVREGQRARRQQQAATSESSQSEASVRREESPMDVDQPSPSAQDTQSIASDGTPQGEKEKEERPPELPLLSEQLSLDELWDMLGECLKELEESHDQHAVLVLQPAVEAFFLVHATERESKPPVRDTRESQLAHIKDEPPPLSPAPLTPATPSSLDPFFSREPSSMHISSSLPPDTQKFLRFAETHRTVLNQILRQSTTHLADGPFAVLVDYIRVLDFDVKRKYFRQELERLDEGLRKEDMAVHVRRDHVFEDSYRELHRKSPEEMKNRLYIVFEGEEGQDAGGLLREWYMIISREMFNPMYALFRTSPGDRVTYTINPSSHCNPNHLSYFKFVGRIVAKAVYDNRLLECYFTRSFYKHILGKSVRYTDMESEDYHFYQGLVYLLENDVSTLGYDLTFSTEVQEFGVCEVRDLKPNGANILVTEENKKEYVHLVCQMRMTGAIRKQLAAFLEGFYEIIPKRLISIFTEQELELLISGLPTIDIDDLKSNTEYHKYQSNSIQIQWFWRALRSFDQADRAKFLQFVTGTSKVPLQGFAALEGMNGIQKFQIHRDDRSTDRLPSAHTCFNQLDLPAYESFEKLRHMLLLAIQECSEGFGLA", "UniProt Q13620": "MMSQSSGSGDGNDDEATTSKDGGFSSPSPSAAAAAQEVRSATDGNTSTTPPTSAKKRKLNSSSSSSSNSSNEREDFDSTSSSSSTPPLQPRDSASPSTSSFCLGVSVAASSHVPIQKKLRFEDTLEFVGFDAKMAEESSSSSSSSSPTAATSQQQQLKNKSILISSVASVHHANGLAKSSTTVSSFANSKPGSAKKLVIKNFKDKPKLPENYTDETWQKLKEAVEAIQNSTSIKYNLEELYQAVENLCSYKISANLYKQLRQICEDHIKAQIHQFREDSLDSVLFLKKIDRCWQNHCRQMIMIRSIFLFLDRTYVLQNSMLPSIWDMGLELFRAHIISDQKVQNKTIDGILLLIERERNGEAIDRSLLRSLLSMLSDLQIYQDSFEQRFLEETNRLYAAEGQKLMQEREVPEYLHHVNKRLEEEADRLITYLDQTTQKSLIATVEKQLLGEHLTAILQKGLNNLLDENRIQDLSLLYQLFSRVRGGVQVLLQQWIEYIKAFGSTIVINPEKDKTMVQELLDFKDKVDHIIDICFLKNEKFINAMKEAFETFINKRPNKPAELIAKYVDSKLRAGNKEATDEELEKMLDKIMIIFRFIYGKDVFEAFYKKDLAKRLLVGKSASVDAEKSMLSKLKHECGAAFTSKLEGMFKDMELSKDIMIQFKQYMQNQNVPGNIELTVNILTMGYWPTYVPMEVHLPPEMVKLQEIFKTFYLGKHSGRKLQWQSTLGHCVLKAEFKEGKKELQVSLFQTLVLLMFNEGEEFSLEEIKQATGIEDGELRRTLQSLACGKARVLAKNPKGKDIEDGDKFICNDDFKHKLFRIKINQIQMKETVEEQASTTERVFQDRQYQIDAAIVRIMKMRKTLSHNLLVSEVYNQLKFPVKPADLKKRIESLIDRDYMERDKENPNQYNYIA", "UniProt Q16531": "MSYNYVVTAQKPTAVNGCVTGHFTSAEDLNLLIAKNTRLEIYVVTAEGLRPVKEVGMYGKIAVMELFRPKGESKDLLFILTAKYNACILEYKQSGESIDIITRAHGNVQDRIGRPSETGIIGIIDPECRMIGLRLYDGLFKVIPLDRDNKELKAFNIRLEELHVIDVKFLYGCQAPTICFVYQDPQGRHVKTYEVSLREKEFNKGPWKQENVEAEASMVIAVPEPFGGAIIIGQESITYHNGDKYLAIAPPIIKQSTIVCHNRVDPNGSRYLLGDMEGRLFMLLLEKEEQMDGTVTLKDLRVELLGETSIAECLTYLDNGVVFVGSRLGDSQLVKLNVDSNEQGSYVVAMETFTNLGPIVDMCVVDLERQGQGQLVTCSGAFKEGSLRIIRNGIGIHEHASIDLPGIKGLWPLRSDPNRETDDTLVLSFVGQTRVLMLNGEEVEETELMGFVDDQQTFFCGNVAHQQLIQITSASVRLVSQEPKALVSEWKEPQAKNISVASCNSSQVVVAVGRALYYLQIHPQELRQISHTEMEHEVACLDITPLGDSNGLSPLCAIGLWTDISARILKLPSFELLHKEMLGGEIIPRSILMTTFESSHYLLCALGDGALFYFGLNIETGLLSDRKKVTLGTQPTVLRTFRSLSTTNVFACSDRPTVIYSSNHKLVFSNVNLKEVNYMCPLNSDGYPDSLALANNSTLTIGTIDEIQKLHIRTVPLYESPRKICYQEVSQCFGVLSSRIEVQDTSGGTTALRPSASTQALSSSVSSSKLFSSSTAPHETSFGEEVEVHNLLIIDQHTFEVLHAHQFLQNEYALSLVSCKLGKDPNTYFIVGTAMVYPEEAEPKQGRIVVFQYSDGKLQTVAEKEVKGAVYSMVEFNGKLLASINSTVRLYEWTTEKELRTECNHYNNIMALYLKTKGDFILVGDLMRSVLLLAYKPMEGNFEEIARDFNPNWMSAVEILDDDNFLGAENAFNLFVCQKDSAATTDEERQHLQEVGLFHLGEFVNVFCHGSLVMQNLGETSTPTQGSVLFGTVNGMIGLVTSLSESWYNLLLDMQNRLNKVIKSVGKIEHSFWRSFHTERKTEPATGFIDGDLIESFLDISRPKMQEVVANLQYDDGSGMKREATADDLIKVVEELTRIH"}, "source": "paper PMC4482080", "key": {"[1]": {"biological_target": "HUWE1 (endogenous) (human (endogenous in HeLa)) (UniProt Q7Z6Z7)", "test": "co-IP; endogenous proteins from HeLa cell lysates; IP with CUL4B antibodies or normal IgG, or with a polyclonal antibody against HUWE1; cells treated with or without MLN4924; immunoblot"}, "[2]": {"biological_target": "Flag-HA-tagged CUL4B (stably expressed in HeLa S3 cells) (human) (UniProt Q13620)", "test": "co-IP; Flag-HA-tagged CUL4B immunoprecipitated from HeLa S3 cells that stably express it; endogenous HUWE1 detected"}, "[3]": {"biological_target": "CUL4B (endogenous) (human (endogenous in HeLa)) (UniProt Q13620)", "test": "co-IP; endogenous proteins from HeLa cell lysates; IP with CUL4B antibodies or normal IgG, or with a polyclonal antibody against HUWE1; cells treated with or without MLN4924; immunoblot"}, "[4]": {"biological_target": "Flag-HA-CUL4B (transiently expressed in 293T cells) (human) (UniProt Q13620)", "test": "co-IP; 293T cells cotransfected; the Flag-tagged protein pulled down with anti-FLAG M2 agarose; immunoblot"}, "Flag-HA-HUWE1": {"biological_target": "Flag-HA-HUWE1 (UniProt Q7Z6Z7)", "test": "co-IP; 293T cells cotransfected; the Flag-tagged protein pulled down with anti-FLAG M2 agarose; immunoblot"}}, "note": "No constants are given. Whether binding was seen depends on the method and setting. In cells and extracts the contact can be indirect. Some entries that bind do so weakly or less than the wild type.", "data": [{"substance": "CUL4B (endogenous) (from UniProt Q13620 1-913)", "values": [{"measurement": "binding", "setting": "[1]", "value": "binds weakly"}]}, {"substance": "HUWE1 (endogenous) (from UniProt Q7Z6Z7 1-4374)", "values": [{"measurement": "binding", "setting": "[2]", "value": "binds"}, {"measurement": "binding", "setting": "[3]", "value": "binds weakly"}]}, {"substance": "EYFP-HUWE1 (from UniProt Q7Z6Z7 1-4374)", "values": [{"measurement": "binding", "setting": "[4]", "value": "binds weakly"}]}, {"substance": "V5-DDB1 (from UniProt Q16531 1-1140)", "values": [{"measurement": "binding", "setting": "Flag-HA-HUWE1", "value": "binds"}]}]}
